This experiment in a line: qHTS Assay to Find Inhibitors of Chronic Active B-Cell Receptor Signaling. The conditions noted are these: ABC-DLBCL IkBa-CBG/CBR reporter, luminescence ratio (green luciferase fused to IkBa over red control in TMD8 lymphoma cells), 4 h. Put shortly:
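Concentration-response series (up to 46 uM) were applied to TMD8 dual-reporter cells for 4 h at 37C with doxycycline. Green/red ratio, after filter-overlap correction, defined %Activity; red signal alone was normalised to basal cells and zero luminescence.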
(In general: qHTS replaces the single test concentration by a dilution series.)

[1] abbreviates: measured here: CBR red luminescence, cell number.
Setting [2] is: measured here: IkBa-CBG green luminescence.

The list shows a part of the results. Further columns of the screen follow, without active or inactive calls. Compounds called inactive in the main read-out are mostly missing here. The note in brackets gives the kind of curve behind each potency; many fits are weak.

The source of these data is PubChem BioAssay AID493014 (National Center for Advancing Translational Sciences (NCATS), 2011).

For orientation: AC50 means the midpoint of the concentration-response curve, whichever way the signal moves. With `O=C(NCc1ccco1)NC(=O)c1csc([N+](=O)[O-])c1`, the concentration at half-maximal activity (AC50) under setting [1] is 20 µM [rising, single point].
For the compound `Cc1nn(-c2ccccn2)c2c1C(c1ccncc1)C1=C(CC(C)(C)CC1=O)N2` (configuration not stated), the concentration at half-maximal activity (AC50) under setting [1] is 20.6 µM [rising, partial curve].
On the same count and under the same terms, the figure for `Cc1cc2ncc(-c3ncc(C(F)(F)F)cc3Cl)cn2n1` is 7.31 µM [rising, partial curve, poor fit].
As to `O=C(C1=C[C@@H](c2coc3ccccc3c2=O)C[C@@H](OCCCCO)O1)N1CCOCC1`, the AC50 under setting [1] was 6.31 µM [falling, single point].
The same measure, in the same setting: for `CCCC(=O)O[C@]1(C(=O)COC(C)=O)CC[C@H]2[C@@H]3C[C@H](F)C4=CC(=O)C=C[C@]4(C)[C@@]3(F)[C@@H](O)C[C@@]21C` the value was 8.91 µM [falling, partial curve].
For `Cc1sc(NC(=S)NC(=O)CCc2ccccc2)c(C(N)=O)c1C`, the concentration at half-maximal activity (AC50) under setting [1] is 0.366 µM [rising, full curve] and the AC50 under setting [2] is 0.326 µM [falling, full curve].
Regarding `CNC(=O)c1c(NC(=O)CS(=O)(=O)c2ccccc2)sc(C)c1C`, under setting [1], the concentration at half-maximal activity (AC50) is 29.1 µM [falling, partial curve, poor fit].
Take `CCSC(=O)N(CC)CC(=O)Nc1c(CC)cccc1CC`: the half-maximal activity concentration (AC50) under setting [1] was 32.6 µM [rising, single point].
For the compound `CCc1ccc(Nc2n[n+](-c3ccccc3)c(-c3cccc(C)c3)s2)cc1`, the AC50 under setting [1] was 29.1 µM [falling, single point].
Same read-out and setting: for `COc1ccc(C(=O)C2CCCN(S(=O)(=O)C(C)C)C2)c(C)c1` (configuration not stated) the value was 2.51 µM [rising, full curve, poor fit]; for `CCC(c1nnnn1Cc1ccc(F)cc1)N(CCCO)Cc1cc2cc3c(cc2[nH]c1=O)OCO3` (configuration not stated), 20 µM [falling, single point]; for `C/C(CCc1oc2ccc(Br)cc2c1-c1ccc(C)o1)=N/O`, 29.1 µM [falling, single point].
Still for that read-out and setting: the figure for `O=C(COC(=O)c1ccccc1-c1nc2ccccc2s1)Nc1ccccc1C(F)(F)F` is 6.51 µM [rising, single point].
Consider `C/C(=N\NS(=O)(=O)c1ccc(Br)cc1)c1ccc(-n2ccnc2)cc1`, for which the AC50 under setting [1] was 1.46 µM [rising, partial curve, poor fit].
Consider `Cc1ccc2sc(N(CCCN(C)C)C(=O)CCS(=O)(=O)c3ccccc3)nc2c1C`, for which, under setting [1], the half-maximal activity concentration (AC50) was 8.91 µM [falling, partial curve, poor fit].
Same read-out and setting: the figure for `CC(=O)Nc1ccc(C(=O)OCC(=O)NCc2cccs2)cc1` is 20.6 µM [rising, partial curve]; for `CC(NC(=O)c1ccccc1Cl)C1COc2ccccc2O1` (configuration not stated) it is 0.731 µM [rising, partial curve, poor fit].
With `CCc1ccc(N2CC(C(=O)Nc3cc(C)on3)CC2=O)cc1` (configuration not stated), the AC50 under setting [1] is 6.31 µM [rising, single point].
The same measure, in the same setting: the figure for `O=C(Nc1ccc(Cn2cccn2)cc1)c1ccc(COc2cccc(Br)c2)cc1` is 4.61 µM [rising, single point]; for `CCN1C(=O)c2cccc3c(NS(=O)(=O)c4ccc(NC(C)=O)cc4)ccc1c23` it is 17.8 µM [rising, partial curve, poor fit].
Turning to `O=C(Nc1cccc(-c2csc(Nc3cccc(C(F)(F)F)c3)n2)c1)c1ccccc1`, the AC50 reads like this: under setting [1], 35.5 µM [falling, single point]; under setting [2], 20 µM [rising, single point].
In the case of `O=[N+]([O-])c1ccc(CS(=O)(=O)c2ccc(Cl)cc2)cc1`, the AC50 under setting [1] was 3.55 µM [rising, single point].
With `Cc1ccsc1/C=C/c1ccc2ccccc2n1`, the AC50 under setting [1] was 0.794 µM [rising, full curve, poor fit].
As for `CCN(CC)c1ccc2c(c1)OC(N)=C(C#N)C2c1cccnc1` (configuration not stated), the concentration at half-maximal activity (AC50) is, setting by setting: under setting [1], 1 µM [rising, full curve]; under setting [2], 0.891 µM [falling, full curve].
For the compound `O=C(CCNc1ccccc1)c1cccc([N+](=O)[O-])c1`, the half-maximal activity concentration (AC50) under setting [1] is 3.55 µM [rising, full curve, poor fit].
The same measure, in the same setting: for `Cc1ccc(NC(=O)N2CCC(c3nc4c(nnn4Cc4c(F)cccc4Cl)c(=O)[nH]3)CC2)cc1` the value was 13 µM [falling, partial curve]; for `COCCN1C=C(C(=O)OC)C(c2cc(Br)c(OC)c(OC)c2)C(C(=O)OC)=C1`, 0.0731 µM [falling, full curve, poor fit]; for `Cc1ccccc1NS(=O)(=O)c1cc(C(=O)Nc2cccc([N+](=O)[O-])c2)ccc1C`, 18.4 µM [falling, single point].
The same measure, in the same setting: for `Cc1ccc2cc3c(NC(=O)C4CCCO4)nn(CC(C)C)c3nc2c1` (configuration not stated) the value was 29.1 µM [rising, single point]; for `COc1cc(C2c3[nH]c4ccccc4c3CCN2Cc2cn(C)nc2C)ccc1F` (configuration not stated), 22.4 µM [falling, partial curve].
Same read-out and setting: for `Cc1cc(CNC(=O)C2CCC(=O)N(Cc3ccccc3F)C2)nn1C` (configuration not stated) the value was 6.31 µM [rising, single point]; for `COc1ccccc1-c1nnc(SC/C(O)=C(\C#N)c2nc3ccccc3[nH]2)n1C1CCCCC1`, 11.6 µM [falling, partial curve, poor fit].
`Cc1cc(N2CCC(C)CC2)nc2cccc(O)c12`: under setting [1], the AC50 is 9.2 µM [rising, partial curve, poor fit].
As for `COc1ccc(C(=O)NNC(=O)c2ccc3ccccc3n2)cc1`, the concentration at half-maximal activity (AC50) was 6.51 µM [rising, full curve, poor fit] under setting [1] and 20.6 µM [falling, single point] under setting [2].
Regarding `CN1CCN(CCCNC(=O)c2ccc3c(=O)n(CCc4ccccc4)c(=O)[nH]c3c2)CC1`, the AC50 under setting [1] was 35.5 µM [falling, single point].
Still for that read-out and setting: for `Cc1c(OCC(=O)NCc2ccncc2)ccc2c3c(c(=O)oc12)CCC3` the value was 0.794 µM [rising, full curve, poor fit]; for `O=C(NNC1=Nc2ccccc2SC1)c1ccc(Cl)cc1`, 0.224 µM [rising, full curve, poor fit].
Consider `O=C(CN1CCN(S(=O)(=O)N2CCOCC2)CC1)Nc1cc(Cl)ccc1Cl`, for which the AC50 under setting [1] was 1 µM [rising, full curve].
As for `CCCCNc1c(-c2ccc(OC)c(SC3CCCCC3)c2)nc2cnccn12`, the AC50 under setting [1] is 20.6 µM [falling, partial curve] and the AC50 under setting [2] was 25.9 µM [rising, partial curve, poor fit].
As to `CCOC(=O)c1cnc(SC)nc1Sc1ccccc1`, the AC50 under setting [1] is 8.2 µM [rising, partial curve, poor fit].
Turning to `Cc1ccn2cc(CNC(=O)c3cccs3)nc2c1`, the AC50 under setting [1] was 6.51 µM [rising, single point].
With `C/C(=C/C(=O)O)C(=O)Nc1cccc(C(F)(F)F)c1`, the concentration at half-maximal activity (AC50) under setting [1] is 20 µM [falling, partial curve, poor fit].
The same measure, in the same setting: the figure for `O=C(CSc1nc2ccccc2s1)NNC(=O)Nc1ccc(Cl)c(Cl)c1` is 14.6 µM [falling, single point].
As to `CC1=C(C(=O)OCc2ccccc2)C(c2ccc(Cl)cc2)NC(=O)N1C` (configuration not stated), the AC50 under setting [1] is 25.1 µM [falling, single point].
Still for that read-out and setting: the figure for `Cc1ccc(CN(C)C(=O)c2ccc(S(=O)(=O)N3CCCCCC3)cc2)o1` is 29.1 µM [rising, partial curve, poor fit].
With `Cn1c(-c2ccc(Br)o2)nc2ccccc21`, the AC50 under setting [1] was 35.5 µM [falling, single point].
With `COc1ccc(C(=O)NN)cc1`, the concentration at half-maximal activity (AC50) under setting [1] was 6.31 µM [falling, partial curve].
Consider `CCOc1ccccc1NC(=O)C(OC(=O)c1ccc(CC)cc1)c1ccccc1` (configuration not stated), for which the half-maximal activity concentration (AC50) under setting [1] is 32.6 µM [rising, single point].
Same read-out and setting: the figure for `COCc1nnc(NC(=O)CS(=O)(=O)Cc2ccccc2)s1` is 20.6 µM [rising, single point]; for `C=CCSc1cc(C)nc2c(-c3ccccc3)cnn12` it is 20 µM [falling, single point].
The same measure, in the same setting: the figure for `COC(=O)c1ccc(NC(=O)c2cccc(N3C(=O)C4C5C=CC(C6CC56)C4C3=O)c2)cc1` (configuration not stated) is 0.631 µM [falling, partial curve, poor fit].
The same measure, in the same setting: for `Cc1ccccc1NC(=O)c1ccc2c(c1)OCCO2` the value was 11.6 µM [falling, partial curve, poor fit].
Turning to `Cc1cccc(NN=C2c3ccccc3-c3ccccc32)c1`, the AC50 under setting [1] is 0.411 µM [rising, full curve].
For the compound `OCCC1CN(Cc2ccon2)CCN1Cc1ccc(F)c(F)c1` (configuration not stated), the half-maximal activity concentration (AC50) under setting [1] is 12.6 µM [rising, partial curve, poor fit].
Same read-out and setting: for `NC(=O)C1CCN(C(=O)C2CCC(=O)N(CC3CCCCC3)C2)CC1` (configuration not stated) the value was 5.01 µM [rising, single point]; for `Cc1csc(NC(=O)c2cc(-c3ccco3)nc3ccccc23)n1`, 10.3 µM [falling, partial curve, poor fit]; for `C/C=C/c1ccc(OCCSc2nc(C)cc(=O)[nH]2)c(OC)c1`, 3.98 µM [rising, partial curve, poor fit].
For `CCOC(=O)c1sc(NNC(=O)c2ccc(F)cc2)nc1C`, under setting [1], the half-maximal activity concentration (AC50) is 28.2 µM [falling, single point].
As for `Fc1ccccc1CSc1nnnn1-c1ccc2c(c1)OCO2`, the AC50 under setting [1] is 9.2 µM [rising, partial curve, poor fit].
On the same count and under the same terms, for `COc1ccccc1N1CCN(C(=O)C(=O)c2c[nH]c3ccccc23)CC1` the value was 3.16 µM [falling, full curve].
Still for that read-out and setting: for `O=C1c2ccccc2C(=O)c2c(NCCCN(CCO)CCO)cccc21` the value was 35.5 µM [falling, single point].
Take `COc1ccc2c(c1)c(CC(=O)NCc1cc([N+](=O)[O-])ccc1O)c(C)n2C(=O)c1ccc(Cl)cc1`: the AC50 under setting [1] was 11.2 µM [falling, partial curve, poor fit].
